In US20060084085A1, “Methods and compositions for modulating Bax-mediated apoptosis” (priority 2004, published 2006):
For at least one compound, name, drawing or mass did not settle the structure.

Tested on: CBP-Ku70 interaction
Experiment: Co-immunoprecipitation of endogenous Ku70 and CBP in the presence of ethidium bromide
Type: cell-based, human
Settings: ethidium bromide 50 μg/ml; co-IP

SMILES: CC[n+]1c(-c2ccccc2)c2cc(N)ccc2c2ccc(N)cc21 [ethidium bromide]
- effect on CBP-Ku70 interaction: not disrupted
